Binding data for one molecule are collected here from paper PMC3466278.

These are yes or no findings as the source states them, for the method shown. Binding seen in cells or lysates may run through a third protein. Some results given as binding are weak or reduced against the parent protein; the word gives no strength. Where a sequence is shown, tags or fusion partners need not be part of it.

For this assay, the target named is T1, rat AT2 receptor tagged C-terminally with GFP (rat) (UniProt P35351).
T1 sequence: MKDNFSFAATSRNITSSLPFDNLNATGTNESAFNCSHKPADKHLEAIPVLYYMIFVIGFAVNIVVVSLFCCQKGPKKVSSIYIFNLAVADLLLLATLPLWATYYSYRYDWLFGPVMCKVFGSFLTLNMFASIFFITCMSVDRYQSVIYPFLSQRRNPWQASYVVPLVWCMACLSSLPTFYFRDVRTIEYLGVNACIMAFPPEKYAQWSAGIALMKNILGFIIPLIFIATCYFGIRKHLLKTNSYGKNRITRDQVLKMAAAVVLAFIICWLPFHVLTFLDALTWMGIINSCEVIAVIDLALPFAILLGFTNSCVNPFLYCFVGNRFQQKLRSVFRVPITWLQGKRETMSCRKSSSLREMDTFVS
The assay is described as follows: co-IP; AT2-GFP and Myc-AT2 constructs (5 µg each) transiently co-transfected into HEK293 cells; lysed in RIPA buffer two days later; immunoprecipitated with a polyclonal anti-GFP antibody, blot probed with a monoclonal anti-Myc antibody; reducing SDS-PAGE.

B1: rat AT2 receptor tagged N-terminally with Myc (receptor, UniProt P35351 1-363)
chain: T1 sequence
Turning to B1, the binding result is “binds”.
